Binding data for nine molecules are collected here from paper PMC11186368.

Protein sequences, listed by entry. Tags and fused reporters are not part of them.
UniProt P53350: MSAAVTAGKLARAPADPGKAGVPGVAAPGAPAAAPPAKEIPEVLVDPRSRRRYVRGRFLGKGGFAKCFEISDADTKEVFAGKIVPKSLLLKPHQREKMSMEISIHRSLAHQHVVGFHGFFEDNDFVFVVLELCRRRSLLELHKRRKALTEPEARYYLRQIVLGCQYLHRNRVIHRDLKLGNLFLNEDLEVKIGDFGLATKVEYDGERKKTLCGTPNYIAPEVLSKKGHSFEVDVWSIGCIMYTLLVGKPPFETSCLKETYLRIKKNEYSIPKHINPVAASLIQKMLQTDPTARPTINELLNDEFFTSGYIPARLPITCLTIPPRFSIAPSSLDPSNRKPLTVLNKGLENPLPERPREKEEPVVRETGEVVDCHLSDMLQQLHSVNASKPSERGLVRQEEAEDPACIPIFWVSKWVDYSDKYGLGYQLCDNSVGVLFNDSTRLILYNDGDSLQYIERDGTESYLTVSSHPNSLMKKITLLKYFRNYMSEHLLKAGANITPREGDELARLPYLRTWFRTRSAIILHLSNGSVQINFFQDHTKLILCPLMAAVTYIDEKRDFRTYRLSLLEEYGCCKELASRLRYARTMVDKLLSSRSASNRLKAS
UniProt P63208: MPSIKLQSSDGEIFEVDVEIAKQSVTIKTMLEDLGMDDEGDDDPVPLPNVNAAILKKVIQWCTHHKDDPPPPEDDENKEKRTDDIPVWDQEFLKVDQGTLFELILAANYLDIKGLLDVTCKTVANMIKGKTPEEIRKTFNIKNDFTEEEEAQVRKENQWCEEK
UniProt Q14980: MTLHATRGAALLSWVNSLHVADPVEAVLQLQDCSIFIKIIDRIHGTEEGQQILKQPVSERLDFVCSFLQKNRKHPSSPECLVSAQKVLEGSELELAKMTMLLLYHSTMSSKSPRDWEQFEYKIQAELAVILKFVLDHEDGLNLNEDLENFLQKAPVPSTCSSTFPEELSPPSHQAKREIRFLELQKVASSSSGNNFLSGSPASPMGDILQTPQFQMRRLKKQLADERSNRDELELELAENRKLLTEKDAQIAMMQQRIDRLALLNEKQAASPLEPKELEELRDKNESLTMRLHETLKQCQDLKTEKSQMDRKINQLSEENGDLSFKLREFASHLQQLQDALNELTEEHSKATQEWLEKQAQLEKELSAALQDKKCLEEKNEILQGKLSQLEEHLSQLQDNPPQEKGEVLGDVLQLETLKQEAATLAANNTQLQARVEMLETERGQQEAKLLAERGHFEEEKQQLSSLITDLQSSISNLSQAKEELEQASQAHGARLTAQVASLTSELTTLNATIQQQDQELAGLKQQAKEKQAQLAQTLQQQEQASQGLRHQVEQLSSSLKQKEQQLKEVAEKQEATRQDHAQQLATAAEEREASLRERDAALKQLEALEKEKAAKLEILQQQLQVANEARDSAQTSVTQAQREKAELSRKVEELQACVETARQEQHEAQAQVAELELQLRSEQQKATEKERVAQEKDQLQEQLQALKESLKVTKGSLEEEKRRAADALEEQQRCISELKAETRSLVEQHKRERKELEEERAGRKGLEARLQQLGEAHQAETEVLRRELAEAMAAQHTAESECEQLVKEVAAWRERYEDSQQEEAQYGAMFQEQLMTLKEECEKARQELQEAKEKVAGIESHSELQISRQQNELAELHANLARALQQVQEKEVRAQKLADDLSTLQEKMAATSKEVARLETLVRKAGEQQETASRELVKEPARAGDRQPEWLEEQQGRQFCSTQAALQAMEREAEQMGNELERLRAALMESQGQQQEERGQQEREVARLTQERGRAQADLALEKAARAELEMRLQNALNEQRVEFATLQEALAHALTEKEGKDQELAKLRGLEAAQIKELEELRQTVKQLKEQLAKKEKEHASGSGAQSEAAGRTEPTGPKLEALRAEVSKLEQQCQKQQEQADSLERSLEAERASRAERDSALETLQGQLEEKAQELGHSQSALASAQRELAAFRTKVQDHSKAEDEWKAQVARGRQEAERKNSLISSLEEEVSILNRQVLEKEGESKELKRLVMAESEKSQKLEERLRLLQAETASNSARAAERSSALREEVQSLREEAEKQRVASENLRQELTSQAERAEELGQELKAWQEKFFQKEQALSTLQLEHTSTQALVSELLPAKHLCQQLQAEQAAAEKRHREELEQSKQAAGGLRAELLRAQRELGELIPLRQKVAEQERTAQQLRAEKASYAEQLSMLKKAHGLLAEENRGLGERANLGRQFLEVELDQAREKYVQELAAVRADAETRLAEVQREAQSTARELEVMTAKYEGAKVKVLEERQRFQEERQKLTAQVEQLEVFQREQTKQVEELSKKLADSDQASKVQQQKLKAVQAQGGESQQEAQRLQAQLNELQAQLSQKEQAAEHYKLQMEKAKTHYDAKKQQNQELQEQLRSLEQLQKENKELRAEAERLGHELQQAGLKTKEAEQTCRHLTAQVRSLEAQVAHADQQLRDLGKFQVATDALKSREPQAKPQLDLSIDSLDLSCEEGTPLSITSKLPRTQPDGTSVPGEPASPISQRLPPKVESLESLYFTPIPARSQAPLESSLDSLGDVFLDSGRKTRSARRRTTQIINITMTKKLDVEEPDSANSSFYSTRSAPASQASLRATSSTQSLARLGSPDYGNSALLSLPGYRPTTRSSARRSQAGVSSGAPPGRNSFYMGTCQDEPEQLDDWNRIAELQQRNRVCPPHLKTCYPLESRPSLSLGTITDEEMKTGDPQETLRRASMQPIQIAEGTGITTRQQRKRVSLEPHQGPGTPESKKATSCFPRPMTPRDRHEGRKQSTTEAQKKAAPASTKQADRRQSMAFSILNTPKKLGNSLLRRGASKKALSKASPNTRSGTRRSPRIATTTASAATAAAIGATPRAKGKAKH
UniProt Q969H0: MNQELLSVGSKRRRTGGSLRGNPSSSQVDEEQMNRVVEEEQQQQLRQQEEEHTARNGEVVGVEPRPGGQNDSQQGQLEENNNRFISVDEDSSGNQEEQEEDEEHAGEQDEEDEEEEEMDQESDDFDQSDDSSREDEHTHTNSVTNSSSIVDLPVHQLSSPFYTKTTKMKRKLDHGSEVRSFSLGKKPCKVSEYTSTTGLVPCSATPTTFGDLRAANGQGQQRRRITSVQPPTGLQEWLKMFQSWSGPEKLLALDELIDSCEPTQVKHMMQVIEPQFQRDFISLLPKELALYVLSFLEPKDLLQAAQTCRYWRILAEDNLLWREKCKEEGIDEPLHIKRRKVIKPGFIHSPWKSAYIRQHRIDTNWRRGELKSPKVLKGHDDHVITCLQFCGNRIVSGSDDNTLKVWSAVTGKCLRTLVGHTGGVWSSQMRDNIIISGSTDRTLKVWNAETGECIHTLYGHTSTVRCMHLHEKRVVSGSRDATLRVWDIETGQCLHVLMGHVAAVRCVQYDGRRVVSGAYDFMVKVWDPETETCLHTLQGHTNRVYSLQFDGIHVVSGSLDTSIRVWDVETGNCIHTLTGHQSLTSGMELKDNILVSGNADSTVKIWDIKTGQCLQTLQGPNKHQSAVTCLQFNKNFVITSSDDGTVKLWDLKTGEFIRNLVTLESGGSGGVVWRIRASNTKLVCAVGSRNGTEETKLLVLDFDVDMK

The target in assay [1] is T1, Cysteine-rich angiogenic inducer 61 (CYR61), endogenous (human (endogenous in HeLa, MDA-MB-231, H1299)) (UniProt O00622).
T1 sequence: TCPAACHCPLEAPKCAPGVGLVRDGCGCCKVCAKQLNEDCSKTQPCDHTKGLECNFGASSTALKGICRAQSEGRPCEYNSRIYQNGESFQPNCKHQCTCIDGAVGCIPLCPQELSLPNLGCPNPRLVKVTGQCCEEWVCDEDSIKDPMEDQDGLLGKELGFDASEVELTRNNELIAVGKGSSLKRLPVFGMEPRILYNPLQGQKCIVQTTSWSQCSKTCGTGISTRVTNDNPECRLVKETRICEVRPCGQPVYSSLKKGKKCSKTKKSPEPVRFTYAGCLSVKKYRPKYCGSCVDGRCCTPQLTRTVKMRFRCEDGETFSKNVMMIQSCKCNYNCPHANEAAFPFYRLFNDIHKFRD
The assay can be described thus: co-IP; endogenous proteins; cell lysates (RIPA buffer) of HeLa, for tubulins also MDA-MB-231 and H1299, immunoprecipitated with antibody or IgG overnight at 4 °C, washed with NETN buffer, immunoblot. On the technique in general: A western blot detects proteins with antibodies after separation by electrophoresis.

For assay [2], the target named is T2, CYR61 in the IP assays of Figure S1 (human) (UniProt O00622).
T2 sequence: T1 sequence
Kind of assay: co-IP; IP assays of Figure S1; cells, bait and antibodies not shown.

For assay [3], the target named is T3, Myc-CYR61 (HEK293T) (human) (UniProt O00622).
T3 sequence: T1 sequence
The assay can be described thus: co-IP; HEK293T cells co-expressing Myc-CYR61 and Flag-PLK1; anti-Myc or anti-Flag beads; immunoblot.

The target in assay [4] is Flag-PLK1 (HEK293T) (human) (UniProt P53350). Described as above.
Assay [5] has as its target GST-PLK1-WT (human) (UniProt P53350). Kind of assay: pull-down; His-CYR61-WT incubated with GST or GST-PLK1-WT at 4 °C overnight, then anti-GST beads, western blot; both purified.
In assay [6] the target is WT PLK1 (HeLa, transfected) (human) (UniProt P53350). The assay can be described thus: co-IP; HeLa cells transfected with CYR61 and PLK1 wild type, deletion mutants or single domains; anti-Myc (Figure 3G) or anti-Flag (Figure 3H) beads; immunoblot.

No constants are given. Whether binding was seen depends on the method and setting. For part of these data: Binding seen in cells or lysates may run through a third protein. Some binding calls cover weakened binding; strength is not graded here. For part of these data: Where a sequence is shown, tags or fusion partners need not be part of it.

In the case of “SKP1, endogenous (from UniProt P63208 1-163)”, the binding result in assay [1] is “binds”. NUMA (from UniProt Q14980 1-2115): the binding result in assay [2] is on record as “binds”. Turning to “Flag-PLK1 (HEK293T) (from UniProt P53350 1-603) (enzyme)”, in assay [3], the binding result is “binds”. For the molecule “FBW7, endogenous (from UniProt Q969H0 1-707)”, the binding result in assay [1] is on record as “binds”.

For the molecule “PLK1, endogenous (from UniProt P53350 1-603) (enzyme)”, the binding result in assay [1] is listed as “binds”.

B1: DVL-1 (protein, UniProt O14640 1-695)
chain: MAETKIIYHMDEEETPYLVKLPVAPERVTLADFKNVLSNRPVHAYKFFFKSMDQDFGVVKEEIFDDNAKLPCFNGRVVSWLVLAEGAHSDAGSQGTDSHTDLPPPLERTGGIGDSRPPSFHPNVASSRDGMDNETGTESMVSHRRERARRRNREEAARTNGHPRGDRRRDVGLPPDSASTALSSELESSSFVDSDEDGSTSRLSSSTEQSTSSRLIRKHKRRRRKQRLRQADRASSFSSITDSTMSLNIVTVTLNMERHHFLGISIVGQSNDRGDGGIYIGSIMKGGAVAADGRIEPGDMLLQVNDVNFENMSNDDAVRVLREIVSQTGPISLTVAKCWDPTPRSYFTVPRADPVRPIDPAAWLSHTAALTGALPRYGTSPCSSAVTRTSSSSLTSSVPGAPQLEEAPLTVKSDMSAVVRVMQLPDSGLEIRDRMWLKITIANAVIGADVVDWLYTHVEGFKERREARKYASSLLKHGFLRHTVNKITFSEQCYYVFGDLCSNLATLNLNSGSSGTSDQDTLAPLPHPAAPWPLGQGYPYQYPGPPPCFPPAYQDPGFSYGSGSTGSQQSEGSKSSGSTRSSRRAPGREKERRAAGAGGSGSESDHTAPSGVGSSWRERPAGQLSRGSSPRSQASATAPGLPPPHPTTKAYTVVGGPPGGPPVRELAAVPPELTGSRQSFQKAMGNPCEFFVDIM
For the molecule B1, in assay [2], the binding result is reported as “binds”.

B2: Myc-CYR61 (HEK293T) (protein, UniProt O00622 25-381)
chain: T1 sequence
For the molecule B2, the binding entry in assay [4] is “binds”.

B3: His-CYR61-WT (protein, UniProt O00622 25-381)
chain: T1 sequence
B3: the binding entry in assay [5] is listed as “binds”.

B4: Myc-CYR61 wild type (HeLa) (protein, UniProt O00622 25-381)
chain: T1 sequence
With B4, the binding result in assay [6] is “binds”.
